{"source": "paper PMC9230395", "key": {"[1]": {"test_system": "ZBP1 (recombinant Z-DNA-binding protein)", "assay": "EMSA", "details": "6% PAGE (cc-91A), gel at 20 C without MgCl2, letters put together from the description"}, "[2]": {"test_system": "ZBP1 (recombinant Z-DNA-binding protein)", "assay": "BLI", "details": "BLI: 1x PBS (10 mM phosphate) pH 7.2, 10 mM MgCl2, 0.1% BSA, 0.02% Tween-20, 25 C, label: 5'-biotin on strand 3, letters put together from the description"}, "[3]": {"details": "10 mM MgCl2, 2.5 uM ZBP1, 132-nt strand circular, EMSA: 10 mM phosphate pH 7.2, 10 mM MgCl2, 0.25 uM DNA"}}, "note": "For at least one entry, the source does not settle the construct or the ends of the probe. Negatives hold for the conditions tested. The comparison behind a weaker result is the experiment's own reference, which may not be listed here.", "data": [{"sequence": "ATATGCCTAGTCTTCCATGACACTGAGACAACTGGAAACCACTCATGCGTAGATGCGAACTAGCACAGTGAACTCATCCACTAGAACTTGAC / GAAGACTAGGCATATGTCAAGTTGACTTGTACTGTCTGGTAGTCAGCTAGGTAGTACTGTTCTCTAGTGGATGAGTTCACTGTGCTAGTTCGCATCTACGCATGAGTGGTTTCCAGTTGTCTCAGTGTCATG [lc-91B (B-DNA control)]", "values": [{"measurement": "binding result", "setting": "[1]; [3]", "value": "no binding"}]}, {"sequence": "ATATGCCTAGTCTTCCATGACACTGAGACAACTGGAAACCACTCATGCGTAGATGCGAACTAGCACAGTGAACTCATCCACTAGAACTTGAC / GAAGACTAGGCATATGTCAAGTTGACTTGTACTGTCTGGTAGTCAGCTAGGTAGTACTGTTCTCTAGTGGATGAGTTCACTGTGCTAGTTCGCATCTACGCATGAGTGGTTTCCAGTTGTCTCAGTGTCATG [cc-91B (LR-chimera, APP-poor, c92B/c132B)]", "values": [{"measurement": "binding result", "setting": "[1]; 10 mM MgCl2, substrate decreases, bands less clear than cc-91A, both strands circular (T4 ligase sealed), EMSA: 10 mM phosphate pH 7.2, 10 mM MgCl2, 0.25 uM DNA", "value": "binds more weakly"}]}, {"sequence": "CGTGTGATATAGGTGAACGCGCGTGTGTGTATATGTGTGCGATCGTAGAACTTGTGAACCCTTATACCATGCACGATCGCACATTTCGCACA / GCACACATATACACACACGCGCGTTCACCTATATCACACGTGACTTGTAATTAGTAACTACCAACGTGCGTGTGTGTCAGTCAGCGAAATGTGCGATCGTGCATGGTATAAGGGTTCACAAGTTCTACGATC [lc-91A (B-DNA control)]", "values": [{"measurement": "binding result", "setting": "[1]; [3]", "value": "no binding"}]}, {"sequence": "CGTGTGATATAGGTGAACGCGCGTGTGTGTATATGTGTGCGATCGTAGAACTTGTGAACCCTTATACCATGCACGATCGCACATTTCGCACA / GCACACATATACACACACGCGCGTTCACCTATATCACACGTGACTTGTAATTAGTAACTACCAACGTGCGTGTGTGTCAGTCAGCGAAATGTGCGATCGTGCATGGTATAAGGGTTCACAAGTTCTACGATC / TTTTTACCTCACTATACTTACATGTTTTTTGGTAGTTACTAATTACAAGT [Bait-lc-91A (lc-91A + lB50, B-DNA)]", "values": [{"measurement": "binding result", "setting": "[2]; 10 mM MgCl2, ~0.06 nm response, almost no binding, strand 2 circular", "value": "no binding"}]}, {"sequence": "ATATGCCTAGTCTTCCATGACACTGAGACAACTGGAAACCACTCATGCGTAGATGCGAACTAGCACAGTGAACTCATCCACTAGAACTTGAC / GAAGACTAGGCATATGTCAAGTTGACTTGTACTGTCTGGTAGTCAGCTAGGTAGTACTGTTCTCTAGTGGATGAGTTCACTGTGCTAGTTCGCATCTACGCATGAGTGGTTTCCAGTTGTCTCAGTGTCATG / TTTTTACCTCACTATACTTACATGTTTTTTCTACCAGACAGTACAAGTCA [Bait-cc-91B (cc-91B + lnB50)]", "values": [{"measurement": "binding result", "setting": "[2]; 10 mM MgCl2, 400 nM ZBP1 gives ~0.15 nm vs ~2.5 nm for cc-91A, fit failed, strands 1 and 2 circular", "value": "binds more weakly"}]}, {"sequence": "CGTGTGATATAGGTGAACGCGCGTGTGTGTATATGTGTGCGATCGTAGAACTTGTGAACCCTTATACCATGCACGATCGCACATTTCGCACA / GCACACATATACACACACGCGCGTTCACCTATATCACACGTGACTTGTAATTAGTAACTACCAACGTGCGTGTGTGTCAGTCAGCGAAATGTGCGATCGTGCATGGTATAAGGGTTCACAAGTTCTACGATC [cc-91A (LR-chimera, APP-rich, c92A/c132A)]", "values": [{"measurement": "binding result", "setting": "[1]; 10 mM MgCl2, clear bands at >=1.875 uM ZBP1, both strands circular (T4 ligase sealed), EMSA: 10 mM phosphate pH 7.2, 10 mM MgCl2, 0.25 uM DNA", "value": "binds"}]}, {"sequence": "CGTGTGATATAGGTGAACGCGCGTGTGTGTATATGTGTGCGATCGTAGAACTTGTGAACCCTTATACCATGCACGATCGCACATTTCGCACA / GCACACATATACACACACGCGCGTTCACCTATATCACACGTGACTTGTAATTAGTAACTACCAACGTGCGTGTGTGTCAGTCAGCGAAATGTGCGATCGTGCATGGTATAAGGGTTCACAAGTTCTACGATC [ll-91A (B-DNA control)]", "values": [{"measurement": "binding result", "setting": "[1]; 10 mM MgCl2, 2.5 uM ZBP1, EMSA: 10 mM phosphate pH 7.2, 10 mM MgCl2, 0.25 uM DNA", "value": "no binding"}]}]}
